Source: patent US11230581B2, “Peptides and combination of peptides for use in immunotherapy against ovarian cancer and other cancers” (Immatics Biotechnologies GmbH, priority 2015, dated 2022)

Test system: additional tumor types
Test: LC-MS detection and over-presentation of the peptides on additional tumor types, cell lines and primary cultures
Parameters: species or system human
Details: for Other relevant organs/ cancerous diseases: Table 4A: additional tumor types on which the peptide was found, over-presented on more than 5% of measured tumor samples, or presented on more than 5% with ratio of geometric means tumor vs normal tissues larger than 3
[1] = additional tumor types with over-presentation on more than 5% of the measured tumor samples, or presentation on more than 5% with ratio of geometric means tumor vs normal tissues larger than 3
[2] = cell lines and primary cultures
[3] = amendment of Table 4: additional tumor types showing over-presentation (including specific presentation) on more than 5% of measured tumor samples, or presentation on more than 5% with ratio of geometric means tumor vs normal tissues larger than 3

Row | Substance | Other relevant organs/ cancerous diseases | Additional organs/cancerous diseases [1] | also measured
1 | SLSEIVPCL (listed as Homo sapiens) [SEQ ID NO.: 512] | – | – | number of samples with detectable presentation of the peptide (cancer tissues, total): 9; number of samples with detectable presentation of the peptide (head and neck cancers): 1; number of samples with detectable presentation of the peptide (lung cancers): 2; number of samples with detectable presentation of the peptide (myeloid cell cancer): 1; number of samples with detectable presentation of the peptide (uterus cancers): 2
2 | 335 (YSLSSVVTV; listed as Homo sapiens) [compound 335] | NSCLC, GC, PC, BrCa, Gallbladder Cancer, Bile Duct Cancer | HNSCC | –
3 | 622 (RLLGEEVVRVLQA; listed as Homo sapiens) [compound 622] | NSCLC, SCLC, CRC, Melanoma | Urinary Bladder Cancer, AML, NHL | –
4 | 299 (YLLETSGNL; listed as Homo sapiens) [compound 299] | Leukemia, Urinary bladder Cancer | – | –
5 | 95 (SVIPQIQKV; listed as Homo sapiens) [compound 95] | PC, Esophageal Cancer | – | –
6 | 536 (YLVEGRFSV; listed as Homo sapiens) [compound 536] | Leukemia | CLL, Urinary Bladder Cancer | –
7 | 297 (VLADIELAQA; listed as Homo sapiens) [compound 297] | – | CLL | –
8 | KTINKVPTV (listed as Homo sapiens) [SEQ ID NO.: 198] | – | – | number of samples with detectable presentation of the peptide (brain cancers): 3; number of samples with detectable presentation of the peptide (breast cancers): 2; number of samples with detectable presentation of the peptide (cancer tissues, total): 36; number of samples with detectable presentation of the peptide [2]: 2; number of samples with detectable presentation of the peptide (colon cancers): 2; number of samples with detectable presentation of the peptide (head and neck cancers): 1; number of samples with detectable presentation of the peptide (liver cancers): 1; number of samples with detectable presentation of the peptide (lung cancers): 14; number of samples with detectable presentation of the peptide (lymph node cancers): 1; number of samples with detectable presentation of the peptide (rectum cancers): 1; number of samples with detectable presentation of the peptide (urinary bladder cancers): 2; number of samples with detectable presentation of the peptide (uterus cancers): 1
9 | 376 (AMFESSQNVLL; listed as Homo sapiens) [compound 376] | Colon, Rectum | CLL | –
10 | 66 (FLDENIGGVAV; listed as Homo sapiens) [compound 66] | SCLC, HCC | – | Additional organs/cancerous diseases [3]: Melanoma, Urinary Bladder Cancer, Uterine Cancer, Gallbladder Cancer and Bile Duct Cancer, AML, NHL, HNSCC
11 | 195 (GLFADLLPRL; listed as Homo sapiens) [compound 195] | NSCLC | PC, Uterine Cancer, AML, HNSCC | –
12 | 283 (ALYIGDGYVIHLA; listed as Homo sapiens) [compound 283] | SCLC, BrCa, MCC, Melanoma | Esophageal Cancer, Urinary Bladder Cancer, Uterine Cancer, NHL | –
13 | 605 (KLYEAVPQL; listed as Homo sapiens) [compound 605] | – | Gallbladder Cancer and Bile Duct Cancer, HNSCC | –
14 | 344 (YLQDQHLLLTV; listed as Homo sapiens) [compound 344] | SCLC, Melanoma | – | –
15 | 611 (YLLDDGTLVV; listed as Homo sapiens) [compound 611] | HCC, Melanoma | Uterine Cancer | –
16 | 583 (ILANDGVLLAA; listed as Homo sapiens) [compound 583] | HCC, Esophageal Cancer | CLL, BRCA, Urinary Bladder Cancer, Uterine Cancer, Gallbladder Cancer and Bile Duct Cancer, NHL, HNSCC | –
17 | 532 (ALNNLLHSL; listed as Homo sapiens) [compound 532] | – | Melanoma, Esophageal Cancer, Urinary Bladder Cancer, Uterine Cancer, Gallbladder Cancer and Bile Duct Cancer, AML, NHL | –
18 | 349 (SLTEYLQNV; listed as Homo sapiens) [compound 349] | Colon, Rectum, HCC | – | –
19 | 270 (LLLDEEGTFSL; listed as Homo sapiens) [compound 270] | Leukemia | CLL, BRCA, Melanoma, NHL | –
20 | 266 (KITDTLIHL; listed as Homo sapiens) [compound 266] | BrCa | Uterine Cancer | –
21 | 310 (FLVDTPLARA; listed as Homo sapiens) [compound 310] | Urinary bladder Cancer | Gallbladder Cancer and Bile Duct Cancer, HNSCC | –
22 | 604 (SILDRDDIFV; listed as Homo sapiens) [compound 604] | Leukemia | CLL, Melanoma, NHL | –
23 | 584 (ALAEVAAMENV; listed as Homo sapiens) [compound 584] | Melanoma | – | –

Row | Substance | Other relevant organs/ cancerous diseases | Additional organs/cancerous diseases [1] | also measured
24 | 607 (RLYSGISGLEL; listed as Homo sapiens) [compound 607] | NSCLC | CLL, Melanoma, AML, NHL | –
25 | GLLRDEALAEV (listed as Homo sapiens) [SEQ ID NO.: 444] | – | – | peptide additionally found on tumor samples (positive/measured) (lymph node cancers, sample set of FIG. 1E-K): 6/20
26 | KIFEMLEGV (listed as Homo sapiens) [SEQ ID NO.: 11] | – | – | number of samples with detectable presentation of the peptide (bile duct cancers): 1; number of samples with detectable presentation of the peptide (cancer tissues, total): 21; number of samples with detectable presentation of the peptide (esophageal cancers): 1; number of samples with detectable presentation of the peptide (liver cancers): 1; number of samples with detectable presentation of the peptide (lung cancers): 10; number of samples with detectable presentation of the peptide (lymph node cancers): 1; number of samples with detectable presentation of the peptide (uterus cancers): 2
27 | KLDDLTQDLTV (listed as Homo sapiens) [SEQ ID NO.: 32] | – | – | number of samples with detectable presentation of the peptide (bile duct cancers): 2; number of samples with detectable presentation of the peptide (cancer tissues, total): 29; number of samples with detectable presentation of the peptide [2]: 1; number of samples with detectable presentation of the peptide (esophageal cancers): 1; number of samples with detectable presentation of the peptide (head and neck cancers): 2; number of samples with detectable presentation of the peptide (liver cancers): 4; number of samples with detectable presentation of the peptide (lung cancers): 4; number of samples with detectable presentation of the peptide (lymph node cancers): 3; number of samples with detectable presentation of the peptide (prostate cancers): 1; number of samples with detectable presentation of the peptide (rectum cancers): 1; number of samples with detectable presentation of the peptide (urinary bladder cancers): 2; number of samples with detectable presentation of the peptide (uterus cancers): 1
28 | 624 (FLQEEPGQLL; listed as Homo sapiens) [compound 624] | Leukemia, Melanoma, Esophageal Cancer | CLL, Urinary Bladder Cancer, Uterine Cancer, Gallbladder Cancer and Bile Duct Cancer, NHL | –
29 | 355 (SIQQSIERLLV; listed as Homo sapiens) [compound 355] | NSCLC, CRC, HCC, Leukemia, Melanoma, Esophageal Cancer | – | –
30 | 387 (ALFQATAEV; listed as Homo sapiens) [compound 387] | HCC, Esophageal Cancer | SCLC, Melanoma, Urinary Bladder Cancer, Uterine Cancer, Gallbladder Cancer and Bile Duct Cancer, AML, NHL, HNSCC | –
31 | 367 (SLQNHNHQL; listed as Homo sapiens) [compound 367] | HCC, Urinary bladder Cancer | NSCLC, CRC, Melanoma, Esophageal Cancer, AML, NHL, HNSCC | –
32 | 572 (ALADLIEKELSV; listed as Homo sapiens) [compound 572] | Leukemia | CLL, NHL | –
33 | 301 (FLVEDLVDSL; listed as Homo sapiens) [compound 301] | SCLC, HCC, Leukemia | CLL, BRCA, Melanoma, Uterine Cancer, AML | –
34 | 291 (GLDSNLKYILV; listed as Homo sapiens) [compound 291] | PC, Melanoma | – | –
35 | 300 (ALLGQTFSL; listed as Homo sapiens) [compound 300] | SCLC, Brain Cancer, CRC | AML, HNSCC | –
36 | 309 (GLFDGVPTTA; listed as Homo sapiens) [compound 309] | HCC, Leukemia, BrCa, Melanoma | SCLC, Urinary Bladder Cancer, Gallbladder Cancer and Bile Duct Cancer, HNSCC | –
37 | 617 (ALMYESEKVGV; listed as Homo sapiens) [compound 617] | HCC, Gallbladder, Bile duct | – | –
38 | 600 (ALAAPDIVPAL; listed as Homo sapiens) [compound 600] | Leukemia | CLL, Uterine Cancer, AML | –
39 | 80 (FLYDNLVESL; listed as Homo sapiens) [compound 80] | Leukemia | – | Additional organs/cancerous diseases [3]: CLL, NHL
40 | 548 (ALWENPESGEL; listed as Homo sapiens) [compound 548] | – | BRCA | –
41 | 549 (AMLENASDIKL; listed as Homo sapiens) [compound 549] | Melanoma | SCLC, CLL, Urinary Bladder Cancer | –
42 | 347 (SLFKHDPAAWEA; listed as Homo sapiens) [compound 347] | NSCLC, HCC, Esophageal Cancer, Urinary bladder Cancer | Uterine Cancer, HNSCC | –
43 | 608 (SLLSVSHAL; listed as Homo sapiens) [compound 608] | RCC | – | –
44 | 121 (GVVDPRAISVL; listed as Homo sapiens) [compound 121] | Esophageal Cancer | – | –
45 | 544 (LLWDVPAPSL; listed as Homo sapiens) [compound 544] | Leukemia, Melanoma | CLL, Uterine Cancer, HNSCC | –
46 | 104 (STMEQNFLL; listed as Homo sapiens) [compound 104] | – | – | Additional organs/cancerous diseases [3]: SCLC, BRCA, Melanoma, Gallbladder Cancer and Bile Duct Cancer, HNSCC
